Patent publication US20230257454A1 (STAIDSON BEIJING BIOPHARMACEUTICALS, published 2023)
Numbering of substitutions follows the chain as printed. No constants are given. Whether binding was seen depends on the method and setting. Some entries that bind do so weakly or less than the wild type.

T1: human endogenous C5a (human, UniProt P01031 678-751, limits assumed)
T1 sequence: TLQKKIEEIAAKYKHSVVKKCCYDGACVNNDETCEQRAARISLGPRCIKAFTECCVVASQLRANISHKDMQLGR

T2: human C5a (source not stated) (human, UniProt P01031 678-751)
T2 sequence: T1 sequence

B1: Cab03 scFv (scFv, V domains shown)
VH: EVQLVESGGGLVQPGGSLKVSCAASGFIFSDYYMQWVRQAPGKGPEWVGLIRKKVNGGTTEYAASVKGRFTISRDDSKSIVYLQMSSLKIEDTAVYYCVSRAGPPGLTWGQGVLVTVSS
VL: DIVLTQTPLSLAVSPGEPASISCRSSQSLLASDGYTYLDWYLQKPGQSPQILIYGGSNRASGVPDRFSGRGSGTDFTLKITKVEAEDVGVYYCLQHRALPPTFGQGTKLEIK
B2: Cab04 scFv (scFv, V domains shown)
VH: B1 VH with E6Q, I28T, K53N, V55A, N56I, E61Q, I90T, T108S, L114V
VL: DIVMIQTPLSLPVTPGEPASISCRSSQRLLHTDGYTYLDWYLQKPGQSPQLLIYGGSNRASGVPDRFSGSGSGSDFTLKISKVEAEDVGVYYCLQHKALPLTFGGGTKLEIK
B3: Cab15 scFv (scFv, V domains shown)
VH: VVQLVESGGGLVQPGGSLKVSCAASGFTFSDYYMQWVRQAPGKGPEWVGLIRNKAIGETTEYAASVKGRFTISRDDSKSIVYLQMSSLKPEDTAVYYCAGRLGPPGLSWGQGVLVTVSS
VL: DIVMTQNPLSLPVTPGEPASISCRSSQSLLATDGYTYLDWYLQKPGQSPQVLIYGGSKRASGVPDRFSGSGSGTDFTLKITKVEAEDVGIYYCMQHKALPPTFGQGTKLEIK
B4: Cab13 scFv (scFv, V domains shown)
VH: B3 VH with E58G, E61Q, P90T, A99V, G100S, L102A, V117I
VL: B3 VL with T5I, T32S, T36N, L38M, Q50K, K58N, A98V
B5: Cab01 scFv (scFv, V domains shown)
VH: EVQLVESGGGMVQPGGSLRVSCAASGFTFTKYYMQWVRQAPGKGPEWVGLIRNKANGGTAEYVASVKDRFTISRDDSKSIAYLQMSSLKTEDTAVYYCVMRDNGYHWGQGVLVTVSS
VL: B2 VL with M4L, I5T, T32S, S74T, L94M, L109V
B6: Cab05 scFv (scFv, V domains shown)
VH: EMQLVESGGGLVQPGGSLRLSCAASGFTFSDYYMQWVRQAPGKGPEWVGLIRNKAVGGTTQYAASVKGRFTISRDDSKNSVYLQMNSLKTEDTAVYYCVSRAGPPGLSWGQGVLVTVSS
VL: DIVMTQSPLSLPVTPGEPASISCRSSQSLLASDGYNYIDWYLQKPGQSPQLLIYGGSNRASGVPDRFSGSGSGTDFTLKISRVEAEDVGVYFCLQHRALPPTFGQGTKLEIK
notes: scFv
B7: Cab42-IgG1 (antibody, V domains shown)
VH: B6 VH with G58E
VL: B6 VL with G34A
notes: Full-length human IgG1; It was biotinylated in the peptide-Fc ELISA
B8: Cab05-IgG4 (antibody, V domains shown)
VH: B6 VH
VL: B6 VL
notes: Full-length human IgG4 with a human kappa or lambda light chain constant domain

Assays:
human endogenous C5a [1] = target: T1, human endogenous C5a; experiment: ELISA, C5a coated, scFv detected with anti-flag
human endogenous C5a [2] = target: T1, human endogenous C5a; experiment: ELISA, plate coated with human eC5a, scFv titrated, OD410
[3] = target: T2, human C5a (source not stated); experiment: ELISA on the coated protein, biotinylated Cab42 titrated, SA-HRP, OD410
human endogenous C5a [4] = target: T1, human endogenous C5a; experiment: SPR (Biacore T200)

Binder	binding (human endogenous C5a [1])	binding (human endogenous C5a [2])	binding [3]	binding (human endogenous C5a [4])
B1	binds	binds	–	–
B2	binds	binds	–	–
B3	binds	binds	–	–
B4	binds	binds	–	–
B5	binds	binds	–	–
B6	binds	binds	–	–
B7	–	–	binds	–
B8	–	–	–	binds
